According to paper PMC7304162:
No constants are given. Whether binding was seen depends on the method and setting. Binding seen in cells or lysates may run through a third protein.

By UniProt entry, the sequences of proteins in these tests, tags left out.
UniProt P49336: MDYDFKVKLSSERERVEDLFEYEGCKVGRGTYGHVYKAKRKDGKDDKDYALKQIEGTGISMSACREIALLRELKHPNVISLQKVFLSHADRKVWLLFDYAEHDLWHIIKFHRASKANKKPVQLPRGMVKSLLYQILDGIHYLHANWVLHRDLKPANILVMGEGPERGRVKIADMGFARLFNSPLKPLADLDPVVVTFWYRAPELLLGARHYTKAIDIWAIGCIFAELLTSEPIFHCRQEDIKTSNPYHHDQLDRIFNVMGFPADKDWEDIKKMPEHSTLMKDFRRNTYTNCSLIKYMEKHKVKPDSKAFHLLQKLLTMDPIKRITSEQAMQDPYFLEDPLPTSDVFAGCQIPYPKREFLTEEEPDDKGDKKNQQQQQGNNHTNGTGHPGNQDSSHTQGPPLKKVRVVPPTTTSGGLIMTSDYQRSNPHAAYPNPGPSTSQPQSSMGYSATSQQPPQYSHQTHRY

Biological target: Cyclin dependent kinase 8 (CDK8) (human (endogenous in HCT116 and LOVO)) (UniProt P49336)
Test: co-IP; whole cell extract of HCT116 or LOVO cells in RIPA buffer; primary antibody 12 h at 4°C, Protein G Sepharose beads, Western blot

- binding: no binding
Substance: p53 (from UniProt P04637 1-393)
